PubChem BioAssay AID1053208, Peter MacCallum Cancer Centre, 2014
Here is an unselected part of about 17,000 reagents. Of all reagents, 788 (4.7%) were called active. 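Calls rest on z-score classes alone; an extra cut-off of viability at most 70% of control was not applied to them.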

Test: 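Synthetic lethal interactions between gene loss and doxorubicin in osteosarcoma cells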 (primary screen)
Cell system: mouse osteosarcoma cells, early-passage culture from an engineered mouse model of fibroblastic bone tumour
Reagents: siRNA pool against mouse genes, 40 nM
Duration: about 120 h (48 h before drug, then 72 h with drug)
Challenge: doxorubicin 100 nM for 72 h, roughly 30-40% inhibitory dose
Read-out: 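Luminescent ATP signal taken as viability with or without 100 nM doxorubicin for 72 h; mean of two wells set against non-targeting siRNA and turned into robust z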
Direction: viability z-score with doxorubicin and doxorubicin viability vs non-targeting: higher = more viable cells under doxorubicin; viability z-score without drug: higher = more viable cells with knock-down alone; z-score of drug to no-drug ratio: higher = less drug sensitisation by knock-down
Hit rule: 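a pool counts as active when its viability z-score with doxorubicin is -2 or below and its z-score without drug lies between -2 and 2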

target	combined z-score class	viability z-score with doxorubicin	viability z-score without drug	z-score of drug to no-drug ratio	doxorubicin viability vs non-targeting	outcome
Opn5 (GeneID 353344)	no change with or without drug	1.24	-0.34	1.69	1.05	inactive
Ebpl (GeneID 68177)	no change with or without drug	-0.9	0.17	-0.9	0.86	inactive
Apobec3 (GeneID 80287)	no change with or without drug	1.91	1.18	1.24	1.11	inactive
Sema7a (GeneID 20361)	no change with or without drug	0	-0.51	0.45	0.94	inactive
Bcl2l13 (GeneID 94044)	no change with or without drug	1.01	1.52	0.11	1.03	inactive
Pde12 (GeneID 211948)	no change with or without drug	1.35	0.84	0.9	1.06	inactive
Or2w2 (GeneID 258533)	no change with or without drug	1.69	1.01	1.12	1.09	inactive
Or5i1 (GeneID 258640)	no change with or without drug	0.45	-0.51	1.01	0.98	inactive
Ints6l (GeneID 236790)	no change with or without drug	0.45	0.17	0.45	0.98	inactive
Etv1 (GeneID 14009)	no change with or without drug	0.34	0.67	0	0.97	inactive
Acan (GeneID 11595)	high cell count with doxorubicin only	3.04	-0.34	3.6	1.21	inactive
Rem2 (GeneID 140743)	no change with or without drug	-1.01	0.34	-1.12	0.85	inactive
Snrpd1 (GeneID 20641)	low cell count with doxorubicin only	-5.17	-1.52	-4.72	0.48	active
Gbp2b (GeneID 14468)	no change with or without drug	0.22	-0.51	0.67	0.96	inactive
Or8g2b (GeneID 258607)	no change with or without drug	-1.35	-0.51	-1.01	0.82	inactive
Purb (GeneID 19291)	no change with or without drug	-0.22	0.17	-0.22	0.92	inactive
Slc7a2 (GeneID 11988)	no change with or without drug	1.69	1.35	0.9	1.09	inactive
Pdcd4 (GeneID 18569)	no change with or without drug	0.34	0.34	0.22	0.97	inactive
Trim7 (GeneID 94089)	no change with or without drug	1.12	0.34	1.01	1.04	inactive
Dnaaf2 (GeneID 109065)	no change with or without drug	-0.79	-0.84	-0.11	0.87	inactive

Taken from above:
Under “combined z-score class”, Or8g2b (GeneID 258607) has no change with or without drug
Result for Acan (GeneID 11595) in “z-score of drug to no-drug ratio”: 3.6
